# Test results as given in the supplement of paper PMC10032668.
# By UniProt entry, the sequences of proteins in these tests, tags left out.
# RUVBL1, Q9Y265, UniProt Q9Y265, whole entry: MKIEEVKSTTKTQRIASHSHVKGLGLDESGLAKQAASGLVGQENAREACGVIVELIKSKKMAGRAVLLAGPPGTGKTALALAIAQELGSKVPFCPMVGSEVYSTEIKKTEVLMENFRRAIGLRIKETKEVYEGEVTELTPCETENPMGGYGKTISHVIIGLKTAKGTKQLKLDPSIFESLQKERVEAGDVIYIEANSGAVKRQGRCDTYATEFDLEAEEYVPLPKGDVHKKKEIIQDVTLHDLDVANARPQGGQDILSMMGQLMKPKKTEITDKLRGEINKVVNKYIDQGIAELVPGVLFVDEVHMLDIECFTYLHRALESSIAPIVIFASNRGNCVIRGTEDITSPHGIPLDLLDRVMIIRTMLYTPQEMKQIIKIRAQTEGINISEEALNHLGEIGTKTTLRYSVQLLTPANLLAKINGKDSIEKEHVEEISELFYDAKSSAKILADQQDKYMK
# TUBG1, P23258, UniProt P23258, whole entry: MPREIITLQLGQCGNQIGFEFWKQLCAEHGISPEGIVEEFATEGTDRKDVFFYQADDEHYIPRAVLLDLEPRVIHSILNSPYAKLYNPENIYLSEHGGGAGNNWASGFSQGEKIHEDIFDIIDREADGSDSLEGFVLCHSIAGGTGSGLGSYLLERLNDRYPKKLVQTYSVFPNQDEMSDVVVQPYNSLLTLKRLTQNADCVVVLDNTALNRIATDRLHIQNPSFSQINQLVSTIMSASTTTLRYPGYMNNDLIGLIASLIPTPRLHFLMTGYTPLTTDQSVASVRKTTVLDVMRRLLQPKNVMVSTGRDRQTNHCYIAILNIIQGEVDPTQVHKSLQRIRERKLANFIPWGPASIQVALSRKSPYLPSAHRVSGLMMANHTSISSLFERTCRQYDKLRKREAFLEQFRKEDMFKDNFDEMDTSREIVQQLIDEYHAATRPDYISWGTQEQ
# MTPN, P58546, UniProt P58546, whole entry: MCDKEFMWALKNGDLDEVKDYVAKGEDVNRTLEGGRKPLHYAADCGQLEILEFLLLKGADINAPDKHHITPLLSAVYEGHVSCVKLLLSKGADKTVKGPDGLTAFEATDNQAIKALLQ
# INTS2, Q9H0H0, UniProt Q9H0H0, whole entry: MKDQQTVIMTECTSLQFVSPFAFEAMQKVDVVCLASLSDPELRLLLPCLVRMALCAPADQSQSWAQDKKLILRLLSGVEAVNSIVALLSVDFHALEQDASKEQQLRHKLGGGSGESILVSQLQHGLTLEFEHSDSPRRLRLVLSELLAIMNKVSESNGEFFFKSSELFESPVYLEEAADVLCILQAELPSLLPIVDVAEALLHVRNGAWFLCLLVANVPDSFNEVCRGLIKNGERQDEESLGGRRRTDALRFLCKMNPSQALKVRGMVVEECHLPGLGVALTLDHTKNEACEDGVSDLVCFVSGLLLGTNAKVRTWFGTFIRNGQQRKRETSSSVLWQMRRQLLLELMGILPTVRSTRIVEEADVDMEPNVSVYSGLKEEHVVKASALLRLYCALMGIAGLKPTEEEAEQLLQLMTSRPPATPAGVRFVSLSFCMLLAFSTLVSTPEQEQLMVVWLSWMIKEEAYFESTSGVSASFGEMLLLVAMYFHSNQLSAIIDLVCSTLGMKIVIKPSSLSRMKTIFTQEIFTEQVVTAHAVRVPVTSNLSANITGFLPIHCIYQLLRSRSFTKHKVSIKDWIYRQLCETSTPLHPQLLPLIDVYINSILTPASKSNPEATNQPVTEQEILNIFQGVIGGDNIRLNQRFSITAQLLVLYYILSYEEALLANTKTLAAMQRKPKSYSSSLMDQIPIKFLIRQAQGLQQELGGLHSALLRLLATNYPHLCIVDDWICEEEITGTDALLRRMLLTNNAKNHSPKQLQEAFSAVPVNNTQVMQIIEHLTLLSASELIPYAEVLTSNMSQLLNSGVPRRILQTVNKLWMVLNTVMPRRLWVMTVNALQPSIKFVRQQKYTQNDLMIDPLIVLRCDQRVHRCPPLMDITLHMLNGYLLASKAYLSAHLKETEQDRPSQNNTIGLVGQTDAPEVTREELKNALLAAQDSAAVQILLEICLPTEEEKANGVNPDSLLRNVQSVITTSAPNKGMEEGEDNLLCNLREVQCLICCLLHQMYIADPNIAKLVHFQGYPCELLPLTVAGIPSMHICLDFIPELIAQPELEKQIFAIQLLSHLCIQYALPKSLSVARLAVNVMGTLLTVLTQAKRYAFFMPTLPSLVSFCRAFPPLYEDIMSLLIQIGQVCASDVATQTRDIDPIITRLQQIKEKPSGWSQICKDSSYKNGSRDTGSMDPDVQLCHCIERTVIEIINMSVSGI
# MYH9, P35579, UniProt P35579, whole entry: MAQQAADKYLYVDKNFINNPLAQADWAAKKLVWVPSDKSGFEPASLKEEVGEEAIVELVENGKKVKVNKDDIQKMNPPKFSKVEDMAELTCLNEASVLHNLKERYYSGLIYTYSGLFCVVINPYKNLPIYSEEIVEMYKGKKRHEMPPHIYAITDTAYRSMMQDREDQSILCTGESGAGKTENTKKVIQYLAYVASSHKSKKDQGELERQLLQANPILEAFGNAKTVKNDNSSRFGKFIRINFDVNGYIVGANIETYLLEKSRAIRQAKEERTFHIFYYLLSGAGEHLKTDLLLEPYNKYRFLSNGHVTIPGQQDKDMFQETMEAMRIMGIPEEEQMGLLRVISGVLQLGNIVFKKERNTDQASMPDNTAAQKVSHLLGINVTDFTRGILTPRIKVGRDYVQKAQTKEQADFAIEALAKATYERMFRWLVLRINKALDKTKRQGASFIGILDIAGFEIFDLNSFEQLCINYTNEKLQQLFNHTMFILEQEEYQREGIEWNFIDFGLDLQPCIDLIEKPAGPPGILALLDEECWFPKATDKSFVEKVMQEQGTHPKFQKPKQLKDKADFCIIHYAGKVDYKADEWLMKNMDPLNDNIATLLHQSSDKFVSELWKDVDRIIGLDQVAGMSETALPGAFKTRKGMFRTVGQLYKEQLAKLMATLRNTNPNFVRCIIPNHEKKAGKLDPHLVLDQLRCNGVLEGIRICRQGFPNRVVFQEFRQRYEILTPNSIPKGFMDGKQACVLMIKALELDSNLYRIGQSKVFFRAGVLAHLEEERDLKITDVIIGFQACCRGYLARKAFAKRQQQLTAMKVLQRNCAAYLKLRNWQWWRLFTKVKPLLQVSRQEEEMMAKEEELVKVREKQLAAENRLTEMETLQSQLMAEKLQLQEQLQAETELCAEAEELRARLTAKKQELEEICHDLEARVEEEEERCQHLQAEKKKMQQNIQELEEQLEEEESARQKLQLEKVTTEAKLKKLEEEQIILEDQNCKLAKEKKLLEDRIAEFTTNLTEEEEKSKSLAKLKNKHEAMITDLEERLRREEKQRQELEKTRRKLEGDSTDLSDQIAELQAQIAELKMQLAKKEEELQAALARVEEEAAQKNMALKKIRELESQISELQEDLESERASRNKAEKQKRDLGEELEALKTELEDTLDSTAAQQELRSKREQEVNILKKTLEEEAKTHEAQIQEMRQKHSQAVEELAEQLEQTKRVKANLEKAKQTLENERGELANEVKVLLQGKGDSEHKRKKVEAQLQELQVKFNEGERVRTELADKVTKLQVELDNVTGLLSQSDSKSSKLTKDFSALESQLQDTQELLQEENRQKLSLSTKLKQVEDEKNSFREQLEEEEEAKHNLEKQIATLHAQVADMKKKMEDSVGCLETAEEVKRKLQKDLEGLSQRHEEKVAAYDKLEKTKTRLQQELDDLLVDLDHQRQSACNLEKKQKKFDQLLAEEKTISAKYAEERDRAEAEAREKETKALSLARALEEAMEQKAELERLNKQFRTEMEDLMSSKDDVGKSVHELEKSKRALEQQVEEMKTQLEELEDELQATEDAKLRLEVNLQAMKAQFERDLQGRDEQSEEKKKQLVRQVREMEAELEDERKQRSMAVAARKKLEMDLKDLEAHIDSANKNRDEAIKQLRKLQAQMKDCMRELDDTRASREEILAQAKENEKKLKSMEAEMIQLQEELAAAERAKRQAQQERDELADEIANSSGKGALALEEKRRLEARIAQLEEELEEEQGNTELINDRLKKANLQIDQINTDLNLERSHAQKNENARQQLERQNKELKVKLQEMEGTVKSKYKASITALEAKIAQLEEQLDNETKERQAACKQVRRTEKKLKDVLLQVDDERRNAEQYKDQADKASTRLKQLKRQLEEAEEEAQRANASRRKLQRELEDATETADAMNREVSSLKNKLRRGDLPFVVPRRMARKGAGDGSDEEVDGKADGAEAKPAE
# SLAIN1, Q8ND83, UniProt Q8ND83, whole entry: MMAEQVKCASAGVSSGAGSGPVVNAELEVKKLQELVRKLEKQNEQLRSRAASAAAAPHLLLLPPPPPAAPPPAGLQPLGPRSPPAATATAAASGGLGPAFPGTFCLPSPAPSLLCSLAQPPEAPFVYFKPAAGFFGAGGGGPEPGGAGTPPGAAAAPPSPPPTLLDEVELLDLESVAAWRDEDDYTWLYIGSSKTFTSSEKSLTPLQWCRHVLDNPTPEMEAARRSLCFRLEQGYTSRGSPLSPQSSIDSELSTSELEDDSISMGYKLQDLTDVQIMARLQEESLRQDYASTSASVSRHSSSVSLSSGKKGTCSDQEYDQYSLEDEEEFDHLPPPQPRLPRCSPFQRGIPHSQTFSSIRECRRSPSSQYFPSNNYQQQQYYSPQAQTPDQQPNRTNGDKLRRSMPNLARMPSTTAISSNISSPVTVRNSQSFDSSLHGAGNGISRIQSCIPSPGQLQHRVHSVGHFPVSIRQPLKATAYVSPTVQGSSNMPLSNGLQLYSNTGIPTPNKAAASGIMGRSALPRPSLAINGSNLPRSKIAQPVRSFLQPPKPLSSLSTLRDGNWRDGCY
# NDUFA6, P56556, UniProt P56556, whole entry: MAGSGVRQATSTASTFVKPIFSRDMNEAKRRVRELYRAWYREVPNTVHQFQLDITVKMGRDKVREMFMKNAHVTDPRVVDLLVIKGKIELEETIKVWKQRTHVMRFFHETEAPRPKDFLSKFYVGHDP
# NDUFB9, Q9Y6M9, UniProt Q9Y6M9, whole entry: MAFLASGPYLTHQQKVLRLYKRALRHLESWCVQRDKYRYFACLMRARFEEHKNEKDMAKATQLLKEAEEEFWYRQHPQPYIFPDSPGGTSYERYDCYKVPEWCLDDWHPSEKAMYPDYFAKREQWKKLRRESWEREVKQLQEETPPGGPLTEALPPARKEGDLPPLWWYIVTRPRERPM
# SYCP2, Q9BX26, UniProt Q9BX26, whole entry: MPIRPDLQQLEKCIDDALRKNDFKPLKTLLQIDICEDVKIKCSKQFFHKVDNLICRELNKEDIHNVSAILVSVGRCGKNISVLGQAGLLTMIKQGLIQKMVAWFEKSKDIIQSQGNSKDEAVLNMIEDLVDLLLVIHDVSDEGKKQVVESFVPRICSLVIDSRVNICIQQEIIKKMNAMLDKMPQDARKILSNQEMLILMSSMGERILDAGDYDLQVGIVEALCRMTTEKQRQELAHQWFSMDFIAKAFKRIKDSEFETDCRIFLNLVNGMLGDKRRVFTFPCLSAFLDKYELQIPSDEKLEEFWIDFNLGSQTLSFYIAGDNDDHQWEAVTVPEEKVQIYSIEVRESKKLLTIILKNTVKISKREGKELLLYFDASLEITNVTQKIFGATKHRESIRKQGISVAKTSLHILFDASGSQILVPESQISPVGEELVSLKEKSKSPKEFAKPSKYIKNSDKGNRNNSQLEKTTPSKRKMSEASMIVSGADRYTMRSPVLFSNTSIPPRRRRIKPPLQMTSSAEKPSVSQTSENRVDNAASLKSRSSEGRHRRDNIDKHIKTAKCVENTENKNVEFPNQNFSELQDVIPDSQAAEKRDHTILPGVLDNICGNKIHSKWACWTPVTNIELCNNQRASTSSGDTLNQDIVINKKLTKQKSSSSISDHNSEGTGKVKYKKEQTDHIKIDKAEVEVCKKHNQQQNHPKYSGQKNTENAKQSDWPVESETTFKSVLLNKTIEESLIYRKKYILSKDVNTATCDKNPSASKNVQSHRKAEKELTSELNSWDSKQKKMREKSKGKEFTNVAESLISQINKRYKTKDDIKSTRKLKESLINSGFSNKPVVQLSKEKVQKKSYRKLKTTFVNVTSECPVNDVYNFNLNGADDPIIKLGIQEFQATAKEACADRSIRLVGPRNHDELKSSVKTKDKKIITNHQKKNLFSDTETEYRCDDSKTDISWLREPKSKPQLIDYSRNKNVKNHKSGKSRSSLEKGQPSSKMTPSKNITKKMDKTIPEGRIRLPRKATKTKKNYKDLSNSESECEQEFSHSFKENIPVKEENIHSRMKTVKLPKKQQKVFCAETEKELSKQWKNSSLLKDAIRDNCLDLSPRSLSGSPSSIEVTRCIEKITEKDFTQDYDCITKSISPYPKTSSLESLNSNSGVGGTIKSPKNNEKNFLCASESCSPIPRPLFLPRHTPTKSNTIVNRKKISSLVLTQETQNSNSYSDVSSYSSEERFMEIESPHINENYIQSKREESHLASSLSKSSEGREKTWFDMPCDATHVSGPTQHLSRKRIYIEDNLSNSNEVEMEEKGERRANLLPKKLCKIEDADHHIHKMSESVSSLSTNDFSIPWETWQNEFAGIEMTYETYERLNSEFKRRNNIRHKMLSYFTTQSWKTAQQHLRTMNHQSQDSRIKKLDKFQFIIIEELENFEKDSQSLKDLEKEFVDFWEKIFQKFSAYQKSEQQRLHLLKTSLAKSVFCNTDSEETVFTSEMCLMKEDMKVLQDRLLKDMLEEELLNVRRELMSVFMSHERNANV
# Some of the results follow. The list holds hits alone, and they repeat only in part.
# Legend:
# Assay in all cases: PRISMA enrichment of interactor (LFQ) in peptide spot vs all other peptide spots (log2 fold change); higher = stronger / more specific binding of the interactor to the peptide
# MTX2, O75431 = biological target: MTX2, O75431
# Procedure: (§1)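 PRISMA: 15-aa overlapping tiles (offset 8 aa) of 60 microproteins, plus SOS1/GLUT1 control peptides, were spot-synthesized on cellulose membranes in triplicate. Membranes were incubated with benzonase-treated HEK293T lysate, and bound proteins were identified by LC-MS/MS with LFQ. Enrichment is the log2 fold change of each protein in one spot versus all other spots. Only interactors passing the significance cutoff are listed.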
# RUVBL1, Q9Y265 = biological target: RUVBL1, Q9Y265
# Procedure: as §1
# IRAK1, P51617 = biological target: IRAK1, P51617
# Procedure: as §1
# PSMB1, P20618 = biological target: PSMB1, P20618
# Procedure: as §1
# RRP9, O43818 = biological target: RRP9, O43818
# Procedure: as §1
# TTN, Q8WZ42 = biological target: TTN, Q8WZ42
# Procedure: as §1
# URB1, O60287 = biological target: URB1, O60287
# Procedure: as §1
# ZNF346, Q9UL40 = biological target: ZNF346, Q9UL40
# Procedure: as §1
# RAB21, Q9UL25 = biological target: RAB21, Q9UL25
# Procedure: as §1
# PDCL3, Q9H2J4 = biological target: PDCL3, Q9H2J4
# Procedure: as §1
# PHF8, Q9UPP1 = biological target: PHF8, Q9UPP1
# Procedure: as §1
# RBM25, P49756 = biological target: RBM25, P49756
# Procedure: as §1
# TUBG1, P23258 = biological target: TUBG1, P23258
# Procedure: as §1
# NAP1L1, P55209 = biological target: NAP1L1, P55209
# Procedure: as §1
# MRM3, Q9HC36 = biological target: MRM3, Q9HC36
# Procedure: as §1
# MTPN, P58546 = biological target: MTPN, P58546
# Procedure: as §1
# VAPA, Q9P0L0 = biological target: VAPA, Q9P0L0
# Procedure: as §1
# INTS2, Q9H0H0 = biological target: INTS2, Q9H0H0
# Procedure: as §1
# PHF3, Q92576 = biological target: PHF3, Q92576
# Procedure: as §1
# RBMS1, P29558 = biological target: RBMS1, P29558
# Procedure: as §1
# SOAT1, P35610 = biological target: SOAT1, P35610
# Procedure: as §1
# SRI, P30626 = biological target: SRI, P30626
# Procedure: as §1
# LSG1, Q9H089 = biological target: LSG1, Q9H089
# Procedure: as §1
# MYH9, P35579 = biological target: MYH9, P35579
# Procedure: as §1
# UBA1, P22314 = biological target: UBA1, P22314
# Procedure: as §1
# NAA50, Q9GZZ1 = biological target: NAA50, Q9GZZ1
# Procedure: as §1
# SIRT1, Q96EB6 = biological target: SIRT1, Q96EB6
# Procedure: as §1
# SLAIN1, Q8ND83 = biological target: SLAIN1, Q8ND83
# Procedure: as §1
# MRPL11, Q9Y3B7 = biological target: MRPL11, Q9Y3B7
# Procedure: as §1
# NSUN5P2, Q63ZY6 = biological target: NSUN5P2, Q63ZY6
# Procedure: as §1
# PIEZO2, Q9H5I5 = biological target: PIEZO2, Q9H5I5
# Procedure: as §1
# PRPS1, P60891 = biological target: PRPS1, P60891
# Procedure: as §1
# ZGRF1, Q86YA3 = biological target: ZGRF1, Q86YA3
# Procedure: as §1
# STAT1, P42224 = biological target: STAT1, P42224
# Procedure: as §1
# NDUFB10, O96000 = biological target: NDUFB10, O96000
# Procedure: as §1
# NME1, P15531 = biological target: NME1, P15531
# Procedure: as §1
# NUP42, O15504 = biological target: NUP42, O15504
# Procedure: as §1
# PFKL, P17858 = biological target: PFKL, P17858
# Procedure: as §1
# MEPCE, Q7L2J0 = biological target: MEPCE, Q7L2J0
# Procedure: as §1
# NOL6, Q9H6R4 = biological target: NOL6, Q9H6R4
# Procedure: as §1
# SLC27A4, Q6P1M0 = biological target: SLC27A4, Q6P1M0
# Procedure: as §1
# TAB1, Q15750 = biological target: TAB1, Q15750
# Procedure: as §1
# ITCH, Q96J02 = biological target: ITCH, Q96J02
# Procedure: as §1
# SHROOM3, Q8TF72 = biological target: SHROOM3, Q8TF72
# Procedure: as §1
# PELP1, Q8IZL8 = biological target: PELP1, Q8IZL8
# Procedure: as §1
# TIMM23B, Q5SRD1 = biological target: TIMM23B, Q5SRD1
# Procedure: as §1
# NDUFA6, P56556 = biological target: NDUFA6, P56556
# Procedure: as §1
# NDUFB9, Q9Y6M9 = biological target: NDUFB9, Q9Y6M9
# Procedure: as §1
# PHAX, Q9H814 = biological target: PHAX, Q9H814
# Procedure: as §1
# SDE2, Q6IQ49 = biological target: SDE2, Q6IQ49
# Procedure: as §1
# SYCP2, Q9BX26 = biological target: SYCP2, Q9BX26
# Procedure: as §1
# UBE2I, P63279 = biological target: UBE2I, P63279
# Procedure: as §1
# UQCRQ, O14949 = biological target: UQCRQ, O14949
# Procedure: as §1
# LIMD2, Q9BT23 = biological target: LIMD2, Q9BT23
# Procedure: as §1
# RBIS, Q8N0T1 = biological target: RBIS, Q8N0T1
# Procedure: as §1
binder,measurement,setting,value
FQSRCKEHGKIKVLE,PRISMA enrichment of interactor (log2),"MTX2, O75431",3.48
same,PRISMA enrichment of interactor (log2),"RUVBL1, Q9Y265",4.05
NGRSLFSIRQWTYRS [SNHG8_2],PRISMA enrichment of interactor (log2),"IRAK1, P51617",7.02
same,PRISMA enrichment of interactor (log2),"PSMB1, P20618",5.83
same,PRISMA enrichment of interactor (log2),"RRP9, O43818",4.64
same,PRISMA enrichment of interactor (log2),"TTN, Q8WZ42",5.62
same,PRISMA enrichment of interactor (log2),"URB1, O60287",6.36
same,PRISMA enrichment of interactor (log2),"ZNF346, Q9UL40",4.09
MRVWIRAPRCRGGPG,PRISMA enrichment of interactor (log2),"RAB21, Q9UL25",4.36
MILPALKLLLFLKYV [HAND2-AS1],PRISMA enrichment of interactor (log2),"PDCL3, Q9H2J4",8.42
same,PRISMA enrichment of interactor (log2),"PHF8, Q9UPP1",6.81
MERKVRKLKSRERQW [RP11-140K17.3],PRISMA enrichment of interactor (log2),"RBM25, P49756",5.77
same,PRISMA enrichment of interactor (log2),"TUBG1, P23258",6.94
LRWKKRAVLPNHRLS [RP1-206D15.6],PRISMA enrichment of interactor (log2),"NAP1L1, P55209",6.23
GAAAVWARAPRRCRA,PRISMA enrichment of interactor (log2),"MRM3, Q9HC36",5.92
same,PRISMA enrichment of interactor (log2),"MTPN, P58546",6.25
same,PRISMA enrichment of interactor (log2),"VAPA, Q9P0L0",4.69
RARSWALRGARKPLR [SNHG6],PRISMA enrichment of interactor (log2),"INTS2, Q9H0H0",5.86
LNAMSLGPRRARSAP [RNF10],PRISMA enrichment of interactor (log2),"PHF3, Q92576",4.49
same,PRISMA enrichment of interactor (log2),"RBMS1, P29558",6.1
same,PRISMA enrichment of interactor (log2),"SOAT1, P35610",4.31
same,PRISMA enrichment of interactor (log2),"SRI, P30626",4.68
RREAGAAARRGVRRW,PRISMA enrichment of interactor (log2),"LSG1, Q9H089",4.83
same,PRISMA enrichment of interactor (log2),"MYH9, P35579",6.27
same,PRISMA enrichment of interactor (log2),"UBA1, P22314",7.55
ENTEVQKKRRQEATH [RP11-12K22.1],PRISMA enrichment of interactor (log2),"NAA50, Q9GZZ1",6.79
same,PRISMA enrichment of interactor (log2),"SIRT1, Q96EB6",4.7
same,PRISMA enrichment of interactor (log2),"SLAIN1, Q8ND83",4.84
MDSTVILSCVRSKNL [BANCR],PRISMA enrichment of interactor (log2),"MRPL11, Q9Y3B7",3.61
same,PRISMA enrichment of interactor (log2),"NSUN5P2, Q63ZY6",4.89
same,PRISMA enrichment of interactor (log2),"PIEZO2, Q9H5I5",7.24
same,PRISMA enrichment of interactor (log2),"PRPS1, P60891",3.65
same,PRISMA enrichment of interactor (log2),"ZGRF1, Q86YA3",4.89
HGKIKVLEWFKYVLG,PRISMA enrichment of interactor (log2),"STAT1, P42224",5.3
RWRGEAGRREAGAAA,PRISMA enrichment of interactor (log2),"NDUFB10, O96000",4.47
same,PRISMA enrichment of interactor (log2),"NME1, P15531",4.82
same,PRISMA enrichment of interactor (log2),"NUP42, O15504",4.47
same,PRISMA enrichment of interactor (log2),"PFKL, P17858",4.52
AIGWRLFLLLWHPAL [TUG1],PRISMA enrichment of interactor (log2),"MEPCE, Q7L2J0",5.9
same,PRISMA enrichment of interactor (log2),"NOL6, Q9H6R4",5.83
same,PRISMA enrichment of interactor (log2),"SLC27A4, Q6P1M0",5.62
same,PRISMA enrichment of interactor (log2),"TAB1, Q15750",4.83
same,PRISMA enrichment of interactor (log2),"ZNF346, Q9UL40",4.71
SDVFFKGFKWGFAAF [NDUFB3],PRISMA enrichment of interactor (log2),"ITCH, Q96J02",5.63
same,PRISMA enrichment of interactor (log2),"SHROOM3, Q8TF72",8.76
FSPSRAFRLHFCNIL [RP3-332B22.1],PRISMA enrichment of interactor (log2),"PELP1, Q8IZL8",4.57
same,PRISMA enrichment of interactor (log2),"TIMM23B, Q5SRD1",6.13
TFRLLTLLPTIEKRR [CTD-2366F13.1],PRISMA enrichment of interactor (log2),"NDUFA6, P56556",6.16
same,PRISMA enrichment of interactor (log2),"NDUFB9, Q9Y6M9",4.61
same,PRISMA enrichment of interactor (log2),"PDCL3, Q9H2J4",8.45
same,PRISMA enrichment of interactor (log2),"PHAX, Q9H814",4.89
same,PRISMA enrichment of interactor (log2),"SDE2, Q6IQ49",5.46
same,PRISMA enrichment of interactor (log2),"SYCP2, Q9BX26",8.17
SRWLCLSAAWSFVQV [PVT1],PRISMA enrichment of interactor (log2),"UBE2I, P63279",5.81
same,PRISMA enrichment of interactor (log2),"UQCRQ, O14949",5.4
TPEELFHPLGADSQ [GLUT1_WT_3],PRISMA enrichment of interactor (log2),"LIMD2, Q9BT23",3.7
KAGLQSLQFIMELLY,PRISMA enrichment of interactor (log2),"RBIS, Q8N0T1",4.38

# Part of the list above, with bars between the fields.
binder | measurement | setting | value
MILPALKLLLFLKYV [HAND2-AS1] | PRISMA enrichment of interactor (log2) | PDCL3, Q9H2J4 | 8.42
same | PRISMA enrichment of interactor (log2) | PHF8, Q9UPP1 | 6.81
MERKVRKLKSRERQW [RP11-140K17.3] | PRISMA enrichment of interactor (log2) | RBM25, P49756 | 5.77
